# Laboratory results as given in PubChem BioAssay AID540276 (National Center for Advancing Translational Sciences (NCATS), 2011).
# “And” between values parts separate entries of the source, which are not always exact repeats. Identical values can stand only once. Hit rate of the full screen: of about 300,000 compounds, about 5,400 (1.8%) were called active. Inconclusive results, whose numbers are uncertain, are shown with a selection of clear calls. Calls follow the shape of the full dose curve; tested in HEK293 cells. Potencies of inconclusive entries are doubtful fits and often do not repeat.
# Assay: qHTS for inhibitors of binding or entry into cells for Marburg Virus
# Details: Marburg virus pseudotyped entry inhibition, cell reporter; activity change, negative = inhibition: at 37.8 µM (top of the series) unless noted
# % is scaled to controls: 0 for no effect and ±100 for the full control effect; potency is read from the fitted curve at half-maximal effect.
Structure (SMILES),"activity change, negative = inhibition",Potency
CC(=O)Nc1ccc(S(=O)(=O)/N=C2/NC(=O)/C(=C\c3ccco3)S2)cc1,inconclusive: 6.17% [activator] [at 46.1 µM],
COc1ccc(S(=O)(=O)NCC(=O)N(CC(=O)NCC2CCCO2)c2ccccc2C)cc1 (stereo not drawn),,inactive
O=[N+]([O-])c1cc(C(F)(F)F)ccc1NCCCCNS(=O)(=O)c1ccc2ccccc2c1,,"inconclusive: 20.6 µM [inhibitor, partial curve, poor fit]"
Cc1ccc(C)c(S(=O)(=O)N2CCN(C(=O)CCCc3c[nH]c4ccccc34)CC2)c1,,"inconclusive: 35.5 µM [inhibitor, single point]"
CCOc1ccc(NC(=O)C(NS(=O)(=O)c2ccc3c(c2)CCN3C(C)=O)C(C)C)cc1 (stereo not drawn),inactive: -9.83% [at 46.1 µM],
Cc1ccc(S(=O)(=O)Nc2cc(=O)[nH]c3c2CCC3)cc1,,"inconclusive: 35.5 µM [activator, single point]"
c1ccc2c(N3CCCCC3)nc(N3CCCC3)nc2c1,,"inconclusive: 16.4 µM [inhibitor, single point]"
Oc1csc(Cc2nc(-c3ccccc3F)cs2)n1,,"inconclusive: 5.62 µM [activator, single point]"
CC1Cc2ccccc2N1C(=O)CSc1ccccc1 (stereo not drawn),inactive: 23.8%,
O=C(NC(NC(=S)Nc1c(Cl)cccc1Cl)C(Cl)(Cl)Cl)OCc1ccccc1 (stereo not drawn),,"inconclusive: 25.1 µM [inhibitor, single point]"
COCCN1C(=O)NC(c2ccc(Br)cc2)C(C(=O)OC)=C1C (stereo not drawn),,"inconclusive: 0.422 µM [activator, partial curve, poor fit]"
O=C(COc1cccc2ccccc12)N/N=C/c1ccncc1,,"inconclusive: 3.55 µM [inhibitor, partial curve, poor fit]"
COc1ccc(NC(=S)c2ccncc2)cc1,inactive: -3.32%,
COc1ccc(C(CNC(=O)c2cccc(S(=O)(=O)Nc3ccc(C)cc3)c2)N2CCCCC2)cc1 (stereo not drawn),,"inconclusive: 35.5 µM [inhibitor, single point]"
O=S(=O)(Nc1ccc(N=Nc2ccc(O)c3ccccc23)cc1)c1ccccc1,,"inconclusive: 15.8 µM [inhibitor, single point]"
O=S(=O)(c1cccc(-c2nnc(SCc3ccc(Cl)cc3)o2)c1)N1CCCCC1,,"inconclusive: 35.5 µM [inhibitor, single point]"
N#Cc1nc(Cc2cccc3ccccc23)oc1N1CCCCC1,,"inconclusive: 1.26 µM [inhibitor, single point]"
CC(=O)Oc1ccc(OC(C)=O)c(SCCCCCCl)c1,,"inconclusive: 35.5 µM [inhibitor, single point]"
COCCN1CC(CNC(=O)c2cc(COc3ccccc3SC)on2)CC1=O (stereo not drawn),inactive: 17.8%,
Cc1cc(C(=O)NNC(=O)c2ccc(F)cc2)c(C)s1,,"inconclusive: 0.1 µM [activator, full curve, poor fit]"
CSc1cccc(NC(=O)C2CCN(C(=O)c3ccccc3C)CC2)c1,,"inconclusive: 20 µM [activator, single point]"
CCOC(=O)N1CCC(NC(=O)c2ccc3c(c2)N(Cc2ccc(F)cc2)C(=O)c2ccccc2S3(=O)=O)CC1,,"inconclusive: 2.24 µM [inhibitor, single point]"
O=C(NC1CCCCC1)c1c(O)nc2sccn2c1=O,inactive: 0.228% [at 46.1 µM],

Structure (SMILES),"activity change, negative = inhibition",Potency
O=c1[nH]cccc1-c1nc2ccccc2[nH]1,inactive: 17.4% [at 46.1 µM],
O=C(CNC(=O)c1ccccc1Cl)c1ccccc1,,"inconclusive: 8.91 µM [inhibitor, partial curve]"
O=S1(=O)CCC(NC(=S)SCc2ccccc2Br)C1 (stereo not drawn),,"inconclusive: 20.6 µM [inhibitor, partial curve, poor fit]"
COc1cc(/C=C(/C#N)c2ccc(F)cc2)ccc1Oc1ccc([N+](=O)[O-])cn1,,"inconclusive: 7.08 µM [inhibitor, partial curve, poor fit]"
CCCCc1ccc(NC(=O)CSC2=NN3CCCC(=O)N=C3S2)cc1,,"inconclusive: 35.5 µM [inhibitor, single point]"
Cc1cc(N2CCCC2)ccc1/C=C1/C(=O)N(C)C(=S)N1C,,"inconclusive: 7.08 µM [inhibitor, partial curve, poor fit]"
COc1cc(OC)cc(C(=O)NCC(=O)OCC(=O)/C=C2/N(C)c3ccccc3C2(C)C)c1,,"inconclusive: 7.94 µM [inhibitor, partial curve, poor fit]"
CN1CCN(S(=O)(=O)c2ccc(-c3ccc(Cl)cc3)cc2)CC1,,"inconclusive: 3.26 µM [activator, single point]"
CCOC(=O)C1C(c2ccc(O)c(OCC)c2)NC(=S)NC1(O)C(F)(F)F (stereo not drawn),inactive: 4.32%,
CCOc1cc(C2c3c(-c4ccc(Br)cc4)n[nH]c3C(=O)N2c2ccc(Cl)cc2)ccc1O (stereo not drawn),,"inconclusive: 10 µM [inhibitor, partial curve, poor fit]"
CS(=O)(=O)N1CCN(c2nc3ccc(Cl)cc3s2)CC1,inactive: 16.1% [at 46.1 µM],
COc1ccc(CNC(=O)CCS(=O)(=O)c2ccc3c(c2)oc(=O)n3C)cc1,,inactive
CCCCC[C@H]1C[C@@H](CC#CCN2CCOCC2)C(=O)O1,inactive: 9.71%,
Cc1ccc(O)c(N=Nc2ccccc2)n1,,"inconclusive: 1 µM [activator, full curve] and inconclusive: 1.46 µM [activator, full curve]"
CCOC(=O)C1CCCN(Cc2cc(=O)oc3cc(C)c(C)cc23)C1 (stereo not drawn),inactive: 7.77% [at 46.1 µM],
Cc1cc(C)c(NC(=O)COc2nc3ccccc3nc2C)c(C)c1,inactive: -11.7%,
CN(CC1COc2ccccc2O1)c1nc(-c2cccnc2)nc2ccccc12 (stereo not drawn),,active: 2.59 µM
Cc1sc(NC(=O)c2ccco2)nc1-c1ccccc1,,"inconclusive: 0.631 µM [activator, full curve, poor fit]"
Cc1c(NC(=O)COC(=O)COc2ccc(Nc3ccccc3)cc2)c(=O)n(-c2ccccc2)n1C,,"inconclusive: 3.55 µM [activator, single point]"
CCSc1ncc(Cl)c(C(=O)Nc2nc3ccc(OC)cc3s2)n1,inactive: 18.6% [at 46.1 µM],
O=C(Nc1nccs1)c1ccc(-c2cccc([N+](=O)[O-])c2)o1,,"inconclusive: 5.62 µM [activator, single point]"
Clc1ccc(-c2nnsc2SCc2ccccc2)cc1,inactive: 4.23%,
COc1ccc(-c2nc(-c3cccc(C(F)(F)F)c3)no2)cc1OC,inactive: 25%,

Structure (SMILES),"activity change, negative = inhibition",Potency
CNC(=O)NNC(=O)c1onc(-c2c(Cl)cccc2Cl)c1C(=O)OC,,"inconclusive: 0.891 µM [inhibitor, single point]"
O=C(COc1ccc(S(=O)(=O)N2CCCCC2)cc1)NCc1ccncc1,,"inconclusive: 0.708 µM [activator, single point]"
Cc1ccc(N(Cc2cccs2)C(=O)c2ccc(Br)o2)cc1,inactive: 0.586% [at 46.1 µM],
COc1ccc(C(=O)OCC(=O)c2ccc[nH]2)cc1,,"inconclusive: 20 µM [activator, single point]"
CCOC(=O)C1CCN(C(=O)COC(=O)c2c(C)c(CC)nc3ccccc23)CC1,,"inconclusive: 0.112 µM [inhibitor, full curve, poor fit]"
COc1cc(/C=N/NC(=O)c2nonc2N)cc(OC)c1OC,inactive: 3.37% [at 46.1 µM],
CC(=O)Nc1ccc(N(C(=O)c2ccco2)C(C(=O)NC2CCCCC2)c2ccccc2)cc1 (stereo not drawn),,"inconclusive: 5.62 µM [inhibitor, single point]"
CCn1cc(C(=O)NC(C)C23CC4CC(CC(C4)C2)C3)cn1 (stereo not drawn),,"inconclusive: 5.01 µM [activator, full curve, poor fit]"
Cc1ccc(NS(=O)(=O)c2ccc(N3CCN(c4ccc(O)cc4)CC3)c([N+](=O)[O-])c2)c(C)c1,,active: 2.82 µM
Cn1cnnc1SCC(=O)c1ccc2c(c1)CCCC2,,"inconclusive: 0.13 µM [activator, single point]"
CCOC(=O)C(Cc1ccccc1)C(=O)NCc1ccccc1 (stereo not drawn),inactive: 0%,
CC(OC(=O)c1ccco1)C(=O)NCc1ccc2c(c1)OCO2 (stereo not drawn),,"inconclusive: 2.51 µM [activator, partial curve, poor fit]"
CN=c1scc(C)n1/N=C/c1cc(Br)c(O)c(Br)c1,,"inconclusive: 35.5 µM [inhibitor, single point]"
Cc1ccccc1Cn1c(=O)n(CCc2ccccc2)c(=O)c2ccccc21,,"inconclusive: 3.55 µM [inhibitor, single point]"
Cc1nc(CC(=O)c2ccc(O)c(C)c2O)cs1,inactive: 0.475%,
CN(C)c1nc(-c2ccccc2)c2cnn(Cc3ccccc3)c2n1,,"inconclusive: 29.1 µM [inhibitor, single point]"
Cc1cc(C)c(NC(=O)CCCN2CCOCC2)c(C)c1,,"inconclusive: 6.51 µM [inhibitor, single point]"
Cc1cc(N2CCCCC2)nc2ccc(NC(=O)/C=C/c3ccccc3Cl)cc12,inactive: -0.316% [at 46.1 µM],
CC(C)c1ccc(-c2c(C#N)c(N)nc(SCC(=O)N3CCCCCC3)c2C#N)cc1,,"inconclusive: 11.6 µM [inhibitor, partial curve, poor fit]"
O=[N+]([O-])c1ccc(N2CCOCC2)cc1SCc1ccco1,,"inconclusive: 3.55 µM [activator, partial curve, poor fit]"
Cc1c(NC(=O)/C(C#N)=C/c2c(Oc3ccccc3)nc3ccccn3c2=O)c(=O)n(-c2ccccc2)n1C,,"inconclusive: 0.316 µM [inhibitor, partial curve, poor fit]"
O=C(O)c1nnn(-c2ccc(F)cc2F)c1-c1ccccc1,,"inconclusive: 2.24 µM [activator, single point]"
